The supplement of paper PMC6411743
± gives the standard deviation of the averaged measurements. The list shows a part of the results, in another mix than the full data.

Key:
Assay in all cases: NP40-soluble protein abundance relative to vehicle (solubility fold change) (ratio); higher = more soluble protein in presence of ATP
[1] = target: T1, RBM12 (UniProt Q9NTZ6)
T1 sequence (whole entry): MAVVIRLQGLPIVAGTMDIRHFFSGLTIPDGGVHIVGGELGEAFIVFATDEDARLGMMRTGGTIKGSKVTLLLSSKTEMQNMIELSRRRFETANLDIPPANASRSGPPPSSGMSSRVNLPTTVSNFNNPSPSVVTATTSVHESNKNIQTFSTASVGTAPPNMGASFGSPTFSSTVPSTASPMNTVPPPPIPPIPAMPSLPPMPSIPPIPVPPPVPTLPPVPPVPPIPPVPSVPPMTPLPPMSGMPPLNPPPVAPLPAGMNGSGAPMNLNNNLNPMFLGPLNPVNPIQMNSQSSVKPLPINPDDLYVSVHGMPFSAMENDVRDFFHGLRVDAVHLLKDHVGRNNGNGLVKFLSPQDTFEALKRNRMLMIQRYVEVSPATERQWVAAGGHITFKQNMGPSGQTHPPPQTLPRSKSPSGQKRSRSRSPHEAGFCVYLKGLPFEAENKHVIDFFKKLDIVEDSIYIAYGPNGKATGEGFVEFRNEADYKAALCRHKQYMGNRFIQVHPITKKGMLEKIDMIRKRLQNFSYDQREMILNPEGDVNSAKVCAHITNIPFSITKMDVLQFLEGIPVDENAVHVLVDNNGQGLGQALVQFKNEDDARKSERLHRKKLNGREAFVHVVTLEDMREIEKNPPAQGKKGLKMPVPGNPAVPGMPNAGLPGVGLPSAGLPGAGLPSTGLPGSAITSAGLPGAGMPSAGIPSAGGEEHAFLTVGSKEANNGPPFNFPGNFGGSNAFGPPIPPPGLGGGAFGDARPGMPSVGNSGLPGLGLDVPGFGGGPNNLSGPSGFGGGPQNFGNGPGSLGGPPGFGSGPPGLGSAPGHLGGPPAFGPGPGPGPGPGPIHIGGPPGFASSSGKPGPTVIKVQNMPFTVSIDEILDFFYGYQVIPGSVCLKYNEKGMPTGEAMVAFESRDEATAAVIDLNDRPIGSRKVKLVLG
Outline: (§1)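 Jurkat crude lysate prepared with a Dounce homogeniser was treated at eight concentrations spanning 0.1 to 10 mM, 10 min at room temperature then 3 min at 37 °C. Solubilisation with 0.8% NP40 and benzonase and ultracentrifugation preceded TMT labelling of the supernatant for LC-MS/MS. Fold change against the detergent-processed vehicle was determined per replicate from vsn-normalised intensities, across three independent experiments.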

[2] = target: T2, SACM1L (UniProt Q9NTJ5)
T2 sequence (whole entry): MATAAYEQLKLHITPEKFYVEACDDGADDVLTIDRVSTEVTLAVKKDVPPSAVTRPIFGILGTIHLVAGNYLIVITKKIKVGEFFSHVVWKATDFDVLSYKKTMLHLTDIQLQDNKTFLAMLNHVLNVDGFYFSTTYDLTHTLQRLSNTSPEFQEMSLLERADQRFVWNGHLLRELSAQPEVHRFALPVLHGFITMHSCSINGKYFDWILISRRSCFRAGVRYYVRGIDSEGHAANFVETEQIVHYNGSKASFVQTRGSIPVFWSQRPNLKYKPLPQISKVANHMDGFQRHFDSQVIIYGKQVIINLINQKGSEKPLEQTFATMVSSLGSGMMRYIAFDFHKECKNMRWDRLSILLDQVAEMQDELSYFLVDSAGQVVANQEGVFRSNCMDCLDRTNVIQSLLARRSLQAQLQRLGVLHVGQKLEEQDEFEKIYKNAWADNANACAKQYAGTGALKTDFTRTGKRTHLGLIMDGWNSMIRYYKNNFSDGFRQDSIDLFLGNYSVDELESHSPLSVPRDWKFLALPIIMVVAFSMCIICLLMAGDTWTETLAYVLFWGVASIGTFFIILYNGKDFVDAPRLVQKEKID
Outline: as §1

[3] = target: T3, TMEM9 (UniProt Q9P0T7)
T3 sequence (whole entry): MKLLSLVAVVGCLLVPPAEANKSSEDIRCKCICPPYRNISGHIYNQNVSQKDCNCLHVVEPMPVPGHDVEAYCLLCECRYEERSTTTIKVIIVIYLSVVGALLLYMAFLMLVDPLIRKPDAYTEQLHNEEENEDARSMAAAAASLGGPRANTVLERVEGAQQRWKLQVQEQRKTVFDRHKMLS
Outline: as §1

[4] = target: T4, UniProt Q9NPH3 and related entries
T4 sequence (whole entry): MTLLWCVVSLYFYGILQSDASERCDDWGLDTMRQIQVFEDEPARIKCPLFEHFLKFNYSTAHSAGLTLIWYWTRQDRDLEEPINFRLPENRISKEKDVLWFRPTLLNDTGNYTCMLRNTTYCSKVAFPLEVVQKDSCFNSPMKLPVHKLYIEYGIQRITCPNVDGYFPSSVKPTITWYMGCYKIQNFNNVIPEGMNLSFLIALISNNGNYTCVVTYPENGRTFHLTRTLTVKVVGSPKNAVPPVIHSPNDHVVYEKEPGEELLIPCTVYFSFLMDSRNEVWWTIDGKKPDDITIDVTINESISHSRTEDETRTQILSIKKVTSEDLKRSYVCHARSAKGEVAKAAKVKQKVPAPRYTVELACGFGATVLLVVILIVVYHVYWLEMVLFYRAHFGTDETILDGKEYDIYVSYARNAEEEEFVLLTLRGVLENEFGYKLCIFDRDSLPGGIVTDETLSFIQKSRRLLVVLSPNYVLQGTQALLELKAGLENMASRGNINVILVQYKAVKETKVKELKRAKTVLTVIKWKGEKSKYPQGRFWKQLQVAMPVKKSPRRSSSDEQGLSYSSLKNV
Outline: as §1

[5] = target: T5, UniProt Q9NPI1 and related entries
T5 sequence (whole entry): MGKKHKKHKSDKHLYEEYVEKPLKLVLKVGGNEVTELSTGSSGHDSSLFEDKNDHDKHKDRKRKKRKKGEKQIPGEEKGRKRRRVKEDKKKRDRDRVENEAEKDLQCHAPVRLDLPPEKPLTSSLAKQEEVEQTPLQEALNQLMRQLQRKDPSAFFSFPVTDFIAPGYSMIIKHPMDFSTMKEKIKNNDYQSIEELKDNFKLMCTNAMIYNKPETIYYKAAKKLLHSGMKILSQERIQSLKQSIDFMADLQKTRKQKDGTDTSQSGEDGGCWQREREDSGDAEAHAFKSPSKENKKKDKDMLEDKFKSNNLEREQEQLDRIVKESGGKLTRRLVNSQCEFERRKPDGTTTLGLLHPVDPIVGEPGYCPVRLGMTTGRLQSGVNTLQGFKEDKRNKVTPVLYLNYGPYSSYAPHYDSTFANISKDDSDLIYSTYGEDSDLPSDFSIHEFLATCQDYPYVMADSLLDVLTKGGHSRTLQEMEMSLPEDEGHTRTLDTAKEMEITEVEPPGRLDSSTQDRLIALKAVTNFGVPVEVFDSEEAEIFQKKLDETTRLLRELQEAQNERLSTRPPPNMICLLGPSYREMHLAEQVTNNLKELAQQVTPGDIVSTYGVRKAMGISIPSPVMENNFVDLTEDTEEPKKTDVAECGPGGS
Outline: as §1

[6] = target: T6, UniProt Q9NPJ3
T6 sequence (whole entry): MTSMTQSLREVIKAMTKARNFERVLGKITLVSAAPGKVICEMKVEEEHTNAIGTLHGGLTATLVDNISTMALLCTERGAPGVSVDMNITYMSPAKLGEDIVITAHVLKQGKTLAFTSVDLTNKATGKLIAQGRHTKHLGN
Outline: as §1

## Nc1ncnc2c1ncn2[C@@H]1O[C@H](COP(=O)(O)OP(=O)(O)OP(=O)(O)O)[C@@H](O)[C@H]1O [adenosine triphosphate]
[1]; concentration: 2mM
  NP40-soluble protein abundance: 0.954 ± 0.041
[1]; concentration: 4mM
  NP40-soluble protein abundance: 0.934 ± 0.045
[1]; concentration: 6mM
  NP40-soluble protein abundance: 0.942 ± 0.066
[1]; concentration: 8mM
  NP40-soluble protein abundance: 0.92 ± 0.022
[1]; concentration: 10mM
  NP40-soluble protein abundance: 0.925 ± 0.017
[2]; concentration: 1mM
  NP40-soluble protein abundance: 1.05 ± 0.068
[2]; concentration: 2mM
  NP40-soluble protein abundance: 1 ± 0.061
[2]; concentration: 4mM
  NP40-soluble protein abundance: 0.982 ± 0.052
[2]; concentration: 6mM
  NP40-soluble protein abundance: 0.977 ± 0.09
[2]; concentration: 8mM
  NP40-soluble protein abundance: 0.988 ± 0.046
[2]; concentration: 10mM
  NP40-soluble protein abundance: 0.97 ± 0.025
[3]; concentration: 1mM
  NP40-soluble protein abundance: 0.905 ± 0.066
[3]; concentration: 2mM
  NP40-soluble protein abundance: 0.91 ± 0.06
[3]; concentration: 4mM
  NP40-soluble protein abundance: 0.94 ± 0.038
[3]; concentration: 6mM
  NP40-soluble protein abundance: 0.919 ± 0.042
[3]; concentration: 8mM
  NP40-soluble protein abundance: 0.931 ± 0.028
[3]; concentration: 10mM
  NP40-soluble protein abundance: 0.872 ± 0.042
[4]; concentration: 1mM
  NP40-soluble protein abundance: 0.801 ± 0.1
[4]; concentration: 2mM
  NP40-soluble protein abundance: 0.91 ± 0.12
[4]; concentration: 4mM
  NP40-soluble protein abundance: 0.95 ± 0.058
[4]; concentration: 6mM
  NP40-soluble protein abundance: 0.988 ± 0.076
[4]; concentration: 8mM
  NP40-soluble protein abundance: 0.96 ± 0.14
[4]; concentration: 10mM
  NP40-soluble protein abundance: 0.955 ± 0.14
[5]; concentration: 1mM
  NP40-soluble protein abundance: 1.16 ± 0.047
[5]; concentration: 2mM
  NP40-soluble protein abundance: 1.21 ± 0.069
[5]; concentration: 4mM
  NP40-soluble protein abundance: 1.29 ± 0.039
[5]; concentration: 6mM
  NP40-soluble protein abundance: 1.37 ± 0.15
[5]; concentration: 8mM
  NP40-soluble protein abundance: 1.38 ± 0.05
[5]; concentration: 10mM
  NP40-soluble protein abundance: 1.43 ± 0.049
[6]; concentration: 1mM
  NP40-soluble protein abundance: 0.949 ± 0.064
[6]; concentration: 2mM
  NP40-soluble protein abundance: 0.95 ± 0.049
[6]; concentration: 4mM
  NP40-soluble protein abundance: 0.892 ± 0.038
